Results published in the supplement of paper PMC11732987, “Enantioselective OTUD7B fragment discovery through chemoproteomics screening and high-throughput optimisation” (Communications Chemistry, 2025).
Some of the results follow. The data scatter; read single values as rough.

These molecules were tested against T1, LMNA C570 (UniProt P02545) (assay: log2 mean competition ratio of IA-DTB cysteine labelling (DMSO/compound) (log2 ratio); higher = stronger cysteine engagement by compound). Settings: 50 µM; treatment time: 4 h; cell line lysate: HEK293T.
T1 sequence (whole entry): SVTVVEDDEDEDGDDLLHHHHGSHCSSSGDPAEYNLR
Method: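 IA-DTB competitive cysteine chemoproteomics in HEK293T RIPA lysate. Lysates were treated with compound 29 or 30 at 50 or 200 µM for 4 h, then IA-DTB (500 µM, 1 h), trypsin-digested, NeutrAvidin-enriched and analysed by diaPASEF. Competition ratio = intensity DMSO / intensity compound (n=4 treated, n=64 DMSO); binding: mean log2 CR ≥ 1 and p ≤ 0.05 plus QC filters. Target is the cysteine site.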

Row | SMILES | log2 mean competition ratio
1 | O=C(CCl)N[C@H]1CCCc2ccccc21 | 0.256
2 | O=C(CCl)N[C@@H]1CCCc2ccccc21 | -0.365

Same assay, conditions: 200 µM; treatment time: 4 h; cell line lysate: HEK293T

Row | SMILES | log2 mean competition ratio
3 | O=C(CCl)N[C@H]1CCCc2ccccc21 | -0.307
4 | O=C(CCl)N[C@@H]1CCCc2ccccc21 | 0.913
